Assay results taken from article PMC5349447, “Applying a high-throughput fluorescence polarization assay for the discovery of chemical probes blocking La:RNA interactions in vitro and in cells” (PLoS ONE, 2017).

system: T1, La-WT:fD1-RNA complex; experiment: EMSA, compound competition, La-WT:fD1; format: binding, human; settings: native gel, fluorescence scan
T1 construct: His; made in house; host or cells: E. coli BL21
Protocol: 12% native TBE polyacrylamide gels were prepared in a Mini-PROTEAN Tetra Handcast System (BioRad). The gel was pre-run for 30 min at 140 V in 1x TBE buffer (45 mM Tris/HCl pH 8.5, 45 mM boric acid, 1 mM EDTA). To prepare the RNA-mix, fluorescence labeled RNA oligoribonucleotides (oligos) were diluted in fluorescence polarization buffer (20 mM Tris/HCl (pH 7.4), 150 mM NaCl, 3.0 mM MgCl2, 0.5 mM EDTA, 0.05% (v/v) IGEPAL), mixed for 10 min at 80°C, and then immediately placed on ice for at least 5 min. All RNA oligos were used at a final concentration of 50 nM. Recombinant La protein was diluted in D-buffer (20 mM Tris/ HCl (pH 7.4), 150mM NaCl, 3mM MgCl2, 0.5mM EDTA, 5% glycerol) and placed on ice until use.
La titration was performed at final concentrations of 20, 40, 60, 100, 200, 300, 400, 500, 600 nM La. Three different La concentrations were used for compound studies: 60 nM for fD1 RNA, 200 nM for fPolyU RNA, and 150 nM for TOPf RNA studies. Two μl of diluted compound (diluted in 100% DMSO) or 2 μl 100% DMSO (control reaction) was combined with 8 μl La-mix in a 96-well plate. 10 μl RNA-mix was added, mixed for 2 min, and incubated for 10 min at RT in the dark. Final concentrations in the reaction: 18 mM Tris/HCl (pH 7.4), 135 mM NaCl, 2.7 mM MgCl2, 0.45 mM EDTA, 0.025% (v/v) IGEPAL, 2% glycerol, 10% DMSO). Samples were loaded onto the pre-run gel without any loading buffer. Gels were run at 160 V for 40 min in the dark. The gels were carefully transferred to a clear plastic wrap and scanned using a Typhoon FLA900 imager. The La-RNA complex (La-RNP) formation was quantified using the ImageQuant TL software.
Next we used our established EMSA to test whether compound C2 and C6 can compete against the three RNA oligos: fD1, fPolyU, and TOPf. All of the EMSA reactions were loaded in the following order: lane 1 contains the RNA oligo alone; lane 2 contains the RNA oligo plus La protein at concentration that shifts 50% of the RNA oligo (positive control); lanes 3–9 contain the RNA oligo, La protein and decreasing concentrations of the compound; and lane 10 contains the RNA oligo and the highest compound concentration (negative control).

SMILES | auto-fluorescence of compound in EMSA gel
O=C(O)c1ccccc1C(=O)c1ccc(O)cc1O [C2, 2-(2,4-dihydroxybenzoyl)benzoic acid] | displays auto-fluorescence
Cc1ccc(C(=O)c2ccccc2C(=O)O)c(O)c1 [C2.01, 2-(2-hydroxy-4-methylbenzoyl)benzoic acid] | not showing auto-fluorescence
O=C(O)c1ccccc1C(=O)c1ccc2ccccc2c1O [C2.02, 2-(1-hydroxy-2-naphthoyl)benzoic acid] | not showing auto-fluorescence
CCOC(=O)c1ccc2c(c1)C1C=CCC1C(C(=O)O)N2 (stereo not shown) [C6, 8-(ethoxycarbonyl)-3a,4,5,9b-tetrahydro-3Hcyclopenta[c]quinoline-4-carboxylic acid] | not
